Measured values as given in article PMC11873243.
Read-outs that look alike come from different tables or passages of the source. Results are given in words; binding and its absence hold for the method and conditions named. In cells and extracts the contact can be indirect. Some entries that bind do so weakly or less than the wild type.

Amino acid sequences for entries named in this document (tags omitted).
UniProt Q13111: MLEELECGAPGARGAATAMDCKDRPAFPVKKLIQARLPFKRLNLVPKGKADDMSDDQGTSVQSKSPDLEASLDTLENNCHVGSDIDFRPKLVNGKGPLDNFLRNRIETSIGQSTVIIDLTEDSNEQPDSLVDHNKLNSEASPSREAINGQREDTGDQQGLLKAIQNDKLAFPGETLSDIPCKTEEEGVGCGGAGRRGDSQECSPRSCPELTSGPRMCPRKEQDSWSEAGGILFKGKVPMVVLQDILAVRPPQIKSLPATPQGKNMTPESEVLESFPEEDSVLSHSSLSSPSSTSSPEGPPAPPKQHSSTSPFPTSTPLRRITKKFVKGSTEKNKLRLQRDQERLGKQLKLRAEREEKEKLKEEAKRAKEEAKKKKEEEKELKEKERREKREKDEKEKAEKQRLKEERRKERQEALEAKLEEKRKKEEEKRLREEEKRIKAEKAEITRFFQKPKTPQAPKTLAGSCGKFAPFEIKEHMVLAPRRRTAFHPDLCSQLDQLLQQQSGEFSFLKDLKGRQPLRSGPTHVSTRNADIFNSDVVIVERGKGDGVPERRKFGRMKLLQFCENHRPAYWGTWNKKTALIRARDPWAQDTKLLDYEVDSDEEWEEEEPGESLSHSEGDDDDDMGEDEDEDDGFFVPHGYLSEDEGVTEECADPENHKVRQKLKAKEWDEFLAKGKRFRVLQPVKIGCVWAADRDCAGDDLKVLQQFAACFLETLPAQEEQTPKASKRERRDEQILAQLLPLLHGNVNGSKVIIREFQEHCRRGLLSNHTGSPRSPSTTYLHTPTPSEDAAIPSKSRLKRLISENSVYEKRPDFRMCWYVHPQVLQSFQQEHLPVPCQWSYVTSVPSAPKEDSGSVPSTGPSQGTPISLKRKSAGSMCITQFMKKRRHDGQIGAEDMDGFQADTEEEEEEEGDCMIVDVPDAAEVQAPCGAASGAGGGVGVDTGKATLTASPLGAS
UniProt P12004: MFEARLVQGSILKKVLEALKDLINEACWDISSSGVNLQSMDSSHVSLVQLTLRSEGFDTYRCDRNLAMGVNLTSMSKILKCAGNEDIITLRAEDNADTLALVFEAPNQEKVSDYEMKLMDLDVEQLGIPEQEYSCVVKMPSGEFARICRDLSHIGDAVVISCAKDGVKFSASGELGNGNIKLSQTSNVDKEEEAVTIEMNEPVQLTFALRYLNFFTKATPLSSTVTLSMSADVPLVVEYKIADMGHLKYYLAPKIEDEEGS
UniProt Q9NS91: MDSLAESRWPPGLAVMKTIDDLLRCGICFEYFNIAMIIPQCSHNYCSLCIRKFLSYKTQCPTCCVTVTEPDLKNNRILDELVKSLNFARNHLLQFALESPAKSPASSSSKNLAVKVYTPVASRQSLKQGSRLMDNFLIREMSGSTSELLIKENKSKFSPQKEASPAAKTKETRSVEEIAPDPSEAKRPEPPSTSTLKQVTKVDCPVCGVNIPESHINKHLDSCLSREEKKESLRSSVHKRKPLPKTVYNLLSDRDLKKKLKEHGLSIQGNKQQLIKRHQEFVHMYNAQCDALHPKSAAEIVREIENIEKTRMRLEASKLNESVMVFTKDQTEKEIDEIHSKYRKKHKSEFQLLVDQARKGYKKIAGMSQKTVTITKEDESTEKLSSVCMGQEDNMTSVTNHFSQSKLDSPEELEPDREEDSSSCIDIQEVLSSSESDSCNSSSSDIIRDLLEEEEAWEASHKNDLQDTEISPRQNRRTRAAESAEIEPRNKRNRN

Tests used:
[1] = biological target: Chromatin assembly factor 1 subunit A (CHAF1A), endogenous (human (endogenous in KYSE510 and A549)) (UniProt Q13111); test: co-IP; KYSE510 and A549 cell lysates, anti-CHAF1A antibodies and protein A/G magnetic beads, 4 °C overnight; IP buffer 50 mM Tris-HCl pH 7.5, 150 mM NaCl, 0.5% NP-40; blot for RAD18
[2] = biological target: proliferating cell nuclear antigen (PCNA), endogenous (human (endogenous in HEK293T and KYSE510)) (UniProt P12004); test: proximity ligation; Duolink PLA on endogenous proteins in KYSE510 cells (shNC or inducible CHAF1A knockdown), with or without 100 J/m^2 UV for 1 h (Pol η also with HU); CSK extraction with formaldehyde
[3] = biological target: Chromatin assembly factor 1 subunit A (CHAF1A), endogenous (human (endogenous in KYSE510 and A549)) (UniProt Q13111); test: proximity ligation; Duolink PLA for CHAF1A and RAD18 in A549 cells
[4] = biological target: proliferating cell nuclear antigen (PCNA), endogenous (human (endogenous in HEK293T and KYSE510)) (UniProt P12004); test: proximity ligation; Duolink PLA on endogenous proteins in KYSE510 cells (shNC or inducible CHAF1A knockdown), with or without 100 J/m^2 UV for 1 h (Pol η also with HU); CSK extraction with formaldehyde; remark: listed apart in the source

| binding [1] | binding [2] | binding [3] | binding [4] | Molecule |
| --- | --- | --- | --- | --- |
| binds | binds | binds |  | E3 ubiquitin ligase RAD18, endogenous (from UniProt Q9NS91 1-495) (enzyme) |
|  |  |  | binds | REV1, endogenous (enzyme, UniProt Q9UBZ9 1-1251) MRRGGWRKRAENDGWETWGGYMAAKVQKLEEQFRSDAAMQKDGTSSTIFSGVAIYVNGYTDPSAEELRKLMMLHGGQYHVYYSRSKTTHIIATNLPNAKIKELKGEKVIRPEWIVESIKAGRLLSYIPYQLYTKQSSVQKGLSFNPVCRPEDPLPGPSNIAKQLNNRVNHIVKKIETENEVKVNGMNSWNEEDENNDFSFVDLEQTSPGRKQNGIPHPRGSTAIFNGHTPSSNGALKTQDCLVPMVNSVASRLSPAFSQEEDKAEKSSTDFRDCTLQQLQQSTRNTDALRNPHRTNSFSLSPLHSNTKINGAHHSTVQGPSSTKSTSSVSTFSKAAPSVPSKPSDCNFISNFYSHSRLHHISMWKCELTEFVNTLQRQSNGIFPGREKLKKMKTGRSALVVTDTGDMSVLNSPRHQSCIMHVDMDCFFVSVGIRNRPDLKGKPVAVTSNRGTGRAPLRPGANPQLEWQYYQNKILKGKAADIPDSSLWENPDSAQANGIDSVLSRAEIASCSYEARQLGIKNGMFFGHAKQLCPNLQAVPYDFHAYKEVAQTLYETLASYTHNIEAVSCDEALVDITEILAETKLTPDEFANAVRMEIKDQTKCAASVGIGSNILLARMATRKAKPDGQYHLKPEEVDDFIRGQLVTNLPGVGHSMESKLASLGIKTCGDLQYMTMAKLQKEFGPKTGQMLYRFCRGLDDRPVRTEKERKSVSAEINYGIRFTQPKEAEAFLLSLSEEIQRRLEATGMKGKRLTLKIMVRKPGAPVETAKFGGHGICDNIARTVTLDQATDNAKIIGKAMLNMFHTMKLNISDMRGVGIHVNQLVPTNLNPSTCPSRPSVQSSHFPSGSYSVRDVFQVQKAKKSTEEEHKEVFRAAVDLEISSASRTCTFLPPFPAHLPTSPDTNKAESSGKWNGLHTPVSVQSRLNLSIEVPSPSQLDQSVLEALPPDLREQVEQVCAVQQAESHGDKKKEPVNGCNTGILPQPVGTVLLQIPEPQESNSDAGINLIALPAFSQVDPEVFAALPAELQRELKAAYDQRQRQGENSTHQQSASASVPKNPLLHLKAAVKEKKRNKKKKTIGSPKRIQSPLNNKLLNSPAKTLPGACGSPQKLIDGFLKHEGPPAEKPLEELSASTSGVPGLSSLQSDPAGCVRPPAPNLAGAVEFNDVKTLLREWITTISDPMEEDILQVVKYCTDLIEEKDLEKLDLVIKYMKRLMQQSVESVWNMAFDFILDNVQVVLQQTYGSTLKVT |
